Article PMC8038998
No constants are given. Whether binding was seen depends on the method and setting. Binding seen in cells or lysates may run through a third protein. Some results given as binding are weak or reduced against the parent protein; the word gives no strength. For some assays here: Sequences can lack the tags named with a protein. Each block holds one molecule with its values, some of them ahead of it.

The chains behind the UniProt entries cited, without tags or fusion partners.
UniProt Q00610: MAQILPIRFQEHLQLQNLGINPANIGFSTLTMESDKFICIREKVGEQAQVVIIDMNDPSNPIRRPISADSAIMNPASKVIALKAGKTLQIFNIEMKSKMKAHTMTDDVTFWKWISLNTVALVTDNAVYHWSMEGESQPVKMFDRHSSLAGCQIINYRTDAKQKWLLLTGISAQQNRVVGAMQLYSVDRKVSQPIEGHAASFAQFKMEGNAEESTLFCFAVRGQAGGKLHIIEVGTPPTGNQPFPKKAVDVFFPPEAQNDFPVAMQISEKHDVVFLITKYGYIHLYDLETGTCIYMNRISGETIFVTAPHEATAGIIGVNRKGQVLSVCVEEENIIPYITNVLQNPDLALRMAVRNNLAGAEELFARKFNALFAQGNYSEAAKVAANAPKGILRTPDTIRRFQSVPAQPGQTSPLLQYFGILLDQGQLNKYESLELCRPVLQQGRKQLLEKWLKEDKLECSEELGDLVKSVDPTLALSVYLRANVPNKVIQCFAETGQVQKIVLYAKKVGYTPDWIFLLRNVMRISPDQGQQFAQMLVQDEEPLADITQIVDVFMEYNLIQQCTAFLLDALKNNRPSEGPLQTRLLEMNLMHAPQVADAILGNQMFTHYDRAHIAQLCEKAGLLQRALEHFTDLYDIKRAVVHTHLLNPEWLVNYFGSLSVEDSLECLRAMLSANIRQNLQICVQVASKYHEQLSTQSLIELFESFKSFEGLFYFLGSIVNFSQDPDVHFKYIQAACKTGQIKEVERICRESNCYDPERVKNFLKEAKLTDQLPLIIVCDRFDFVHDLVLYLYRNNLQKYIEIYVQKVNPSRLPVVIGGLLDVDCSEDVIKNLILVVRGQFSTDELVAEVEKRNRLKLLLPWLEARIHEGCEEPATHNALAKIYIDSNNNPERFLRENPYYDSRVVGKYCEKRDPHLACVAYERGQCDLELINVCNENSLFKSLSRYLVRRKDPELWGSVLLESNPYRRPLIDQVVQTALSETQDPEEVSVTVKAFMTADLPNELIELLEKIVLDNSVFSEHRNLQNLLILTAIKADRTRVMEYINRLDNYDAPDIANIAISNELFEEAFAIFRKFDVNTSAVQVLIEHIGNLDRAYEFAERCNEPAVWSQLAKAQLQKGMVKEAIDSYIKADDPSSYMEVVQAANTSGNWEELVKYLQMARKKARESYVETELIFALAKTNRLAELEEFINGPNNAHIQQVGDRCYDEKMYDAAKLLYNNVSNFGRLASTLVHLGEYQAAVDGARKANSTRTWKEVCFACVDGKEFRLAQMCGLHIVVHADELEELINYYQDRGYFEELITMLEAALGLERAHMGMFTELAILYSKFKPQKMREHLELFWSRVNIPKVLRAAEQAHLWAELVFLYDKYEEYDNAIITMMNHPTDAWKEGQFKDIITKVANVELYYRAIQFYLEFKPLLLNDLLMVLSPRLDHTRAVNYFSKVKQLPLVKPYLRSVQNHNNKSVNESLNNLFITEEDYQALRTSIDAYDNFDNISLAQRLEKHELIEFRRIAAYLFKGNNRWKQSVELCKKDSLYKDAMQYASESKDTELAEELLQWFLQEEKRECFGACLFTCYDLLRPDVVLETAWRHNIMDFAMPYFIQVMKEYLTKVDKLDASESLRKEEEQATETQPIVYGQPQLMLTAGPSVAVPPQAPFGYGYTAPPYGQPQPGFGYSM

Key:
[1] = biological target: T1, MACC1, ectopically overexpressed in SW480 cells (SW480/MACC1) (human) (UniProt Q6ZN28); experiment: co-IP; IP (pull-down) of MACC1 or its GFP-tagged variants from lysates of SW620, SW480/MACC1, SW480/MACC1-GFP and SW480 deletion-variant cells; CoIP lysing buffer (20 mM Tris–HCl pH 7.5, 150 mM NaCl, 0.1% NP40, 1 mM EDTA, 1% Triton X 100), antibody over night at 4 °C, protein-G Sepharose; Western blot
T1 sequence: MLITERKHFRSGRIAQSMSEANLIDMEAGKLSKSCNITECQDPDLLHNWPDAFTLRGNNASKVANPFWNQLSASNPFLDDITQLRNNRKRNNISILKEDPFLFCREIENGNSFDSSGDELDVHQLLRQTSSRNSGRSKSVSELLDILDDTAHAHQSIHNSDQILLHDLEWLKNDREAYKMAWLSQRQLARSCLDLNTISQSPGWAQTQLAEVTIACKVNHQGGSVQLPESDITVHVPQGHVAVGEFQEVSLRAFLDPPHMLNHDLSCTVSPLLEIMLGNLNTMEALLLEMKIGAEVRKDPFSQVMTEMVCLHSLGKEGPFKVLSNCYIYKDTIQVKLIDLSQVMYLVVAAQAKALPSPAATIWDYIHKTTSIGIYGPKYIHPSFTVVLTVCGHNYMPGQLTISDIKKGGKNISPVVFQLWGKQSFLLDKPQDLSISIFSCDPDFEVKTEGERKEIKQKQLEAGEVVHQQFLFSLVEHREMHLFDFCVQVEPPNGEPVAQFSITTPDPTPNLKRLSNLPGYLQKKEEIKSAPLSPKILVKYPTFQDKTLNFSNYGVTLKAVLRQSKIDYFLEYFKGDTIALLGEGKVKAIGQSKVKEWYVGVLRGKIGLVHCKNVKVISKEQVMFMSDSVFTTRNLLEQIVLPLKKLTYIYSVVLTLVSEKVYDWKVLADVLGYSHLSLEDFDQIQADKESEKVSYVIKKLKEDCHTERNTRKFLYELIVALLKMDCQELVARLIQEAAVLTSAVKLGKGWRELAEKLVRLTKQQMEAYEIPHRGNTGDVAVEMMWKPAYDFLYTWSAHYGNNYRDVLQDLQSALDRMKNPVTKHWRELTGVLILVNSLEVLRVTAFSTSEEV

[2] = biological target: T2, Metastasis Associated in Colon Cancer 1 (MACC1), endogenous in SW620 cells (human (endogenous in SW620)) (UniProt Q6ZN28); experiment: as above
T2 sequence: T1 sequence

[3] = biological target: T3, full-length MACC1, C-terminal GFP fusion (MACC1-GFP) (human) (UniProt Q6ZN28); experiment: as above
T3 sequence: T1 sequence

[4] = biological target: epidermal growth factor receptor (EGFR) (human (endogenous in SW620 and SW480)) (UniProt P00533); experiment: co-IP; EGFR pulled down from SW620 and SW480/MACC1 lysates, MACC1 co-precipitated; CoIP lysing buffer, antibody over night at 4 °C, protein-G Sepharose; Western blot

- binding [1]: binds
- binding [2]: binds
- binding [3]: binds
Molecule: clathrin heavy chain 1 (CLTC) (from UniProt Q00610 1-1675)

- binding [4]: binds
B1: Metastasis Associated in Colon Cancer 1 (MACC1), endogenous in SW620 cells (protein, UniProt Q6ZN28 1-852)
chain: T1 sequence

- binding [4]: binds
B2: MACC1, ectopically overexpressed in SW480 cells (SW480/MACC1) (protein, UniProt Q6ZN28 1-852)
chain: T1 sequence
